Reference: paper doi:10.1101/2020.09.10.291013
These are yes or no findings as the source states them, for the method shown. In cells and extracts the contact can be indirect. A yes stands for co-enrichment or nearness to the bait. Other partners may have been found. For some of these results: No binding means not detected with the bait. For some of these results: Tags and fused reporters may be left off the sequences shown. Blank lines part the entries; values can stand above or below the molecule they belong to.

Amino acid sequences for entries named in this document (tags omitted).
UniProt O88895: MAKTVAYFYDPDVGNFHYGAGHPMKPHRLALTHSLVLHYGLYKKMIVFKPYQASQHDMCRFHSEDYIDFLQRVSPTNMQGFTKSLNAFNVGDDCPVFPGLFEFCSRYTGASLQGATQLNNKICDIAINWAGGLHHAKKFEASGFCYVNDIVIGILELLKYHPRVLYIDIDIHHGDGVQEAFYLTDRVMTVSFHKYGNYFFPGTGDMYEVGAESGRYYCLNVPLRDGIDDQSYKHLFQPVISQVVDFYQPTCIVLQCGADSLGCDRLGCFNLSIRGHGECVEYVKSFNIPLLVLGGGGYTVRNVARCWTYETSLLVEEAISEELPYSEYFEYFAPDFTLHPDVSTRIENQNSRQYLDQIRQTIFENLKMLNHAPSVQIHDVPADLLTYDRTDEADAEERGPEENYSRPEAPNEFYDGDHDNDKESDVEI
UniProt Q60974: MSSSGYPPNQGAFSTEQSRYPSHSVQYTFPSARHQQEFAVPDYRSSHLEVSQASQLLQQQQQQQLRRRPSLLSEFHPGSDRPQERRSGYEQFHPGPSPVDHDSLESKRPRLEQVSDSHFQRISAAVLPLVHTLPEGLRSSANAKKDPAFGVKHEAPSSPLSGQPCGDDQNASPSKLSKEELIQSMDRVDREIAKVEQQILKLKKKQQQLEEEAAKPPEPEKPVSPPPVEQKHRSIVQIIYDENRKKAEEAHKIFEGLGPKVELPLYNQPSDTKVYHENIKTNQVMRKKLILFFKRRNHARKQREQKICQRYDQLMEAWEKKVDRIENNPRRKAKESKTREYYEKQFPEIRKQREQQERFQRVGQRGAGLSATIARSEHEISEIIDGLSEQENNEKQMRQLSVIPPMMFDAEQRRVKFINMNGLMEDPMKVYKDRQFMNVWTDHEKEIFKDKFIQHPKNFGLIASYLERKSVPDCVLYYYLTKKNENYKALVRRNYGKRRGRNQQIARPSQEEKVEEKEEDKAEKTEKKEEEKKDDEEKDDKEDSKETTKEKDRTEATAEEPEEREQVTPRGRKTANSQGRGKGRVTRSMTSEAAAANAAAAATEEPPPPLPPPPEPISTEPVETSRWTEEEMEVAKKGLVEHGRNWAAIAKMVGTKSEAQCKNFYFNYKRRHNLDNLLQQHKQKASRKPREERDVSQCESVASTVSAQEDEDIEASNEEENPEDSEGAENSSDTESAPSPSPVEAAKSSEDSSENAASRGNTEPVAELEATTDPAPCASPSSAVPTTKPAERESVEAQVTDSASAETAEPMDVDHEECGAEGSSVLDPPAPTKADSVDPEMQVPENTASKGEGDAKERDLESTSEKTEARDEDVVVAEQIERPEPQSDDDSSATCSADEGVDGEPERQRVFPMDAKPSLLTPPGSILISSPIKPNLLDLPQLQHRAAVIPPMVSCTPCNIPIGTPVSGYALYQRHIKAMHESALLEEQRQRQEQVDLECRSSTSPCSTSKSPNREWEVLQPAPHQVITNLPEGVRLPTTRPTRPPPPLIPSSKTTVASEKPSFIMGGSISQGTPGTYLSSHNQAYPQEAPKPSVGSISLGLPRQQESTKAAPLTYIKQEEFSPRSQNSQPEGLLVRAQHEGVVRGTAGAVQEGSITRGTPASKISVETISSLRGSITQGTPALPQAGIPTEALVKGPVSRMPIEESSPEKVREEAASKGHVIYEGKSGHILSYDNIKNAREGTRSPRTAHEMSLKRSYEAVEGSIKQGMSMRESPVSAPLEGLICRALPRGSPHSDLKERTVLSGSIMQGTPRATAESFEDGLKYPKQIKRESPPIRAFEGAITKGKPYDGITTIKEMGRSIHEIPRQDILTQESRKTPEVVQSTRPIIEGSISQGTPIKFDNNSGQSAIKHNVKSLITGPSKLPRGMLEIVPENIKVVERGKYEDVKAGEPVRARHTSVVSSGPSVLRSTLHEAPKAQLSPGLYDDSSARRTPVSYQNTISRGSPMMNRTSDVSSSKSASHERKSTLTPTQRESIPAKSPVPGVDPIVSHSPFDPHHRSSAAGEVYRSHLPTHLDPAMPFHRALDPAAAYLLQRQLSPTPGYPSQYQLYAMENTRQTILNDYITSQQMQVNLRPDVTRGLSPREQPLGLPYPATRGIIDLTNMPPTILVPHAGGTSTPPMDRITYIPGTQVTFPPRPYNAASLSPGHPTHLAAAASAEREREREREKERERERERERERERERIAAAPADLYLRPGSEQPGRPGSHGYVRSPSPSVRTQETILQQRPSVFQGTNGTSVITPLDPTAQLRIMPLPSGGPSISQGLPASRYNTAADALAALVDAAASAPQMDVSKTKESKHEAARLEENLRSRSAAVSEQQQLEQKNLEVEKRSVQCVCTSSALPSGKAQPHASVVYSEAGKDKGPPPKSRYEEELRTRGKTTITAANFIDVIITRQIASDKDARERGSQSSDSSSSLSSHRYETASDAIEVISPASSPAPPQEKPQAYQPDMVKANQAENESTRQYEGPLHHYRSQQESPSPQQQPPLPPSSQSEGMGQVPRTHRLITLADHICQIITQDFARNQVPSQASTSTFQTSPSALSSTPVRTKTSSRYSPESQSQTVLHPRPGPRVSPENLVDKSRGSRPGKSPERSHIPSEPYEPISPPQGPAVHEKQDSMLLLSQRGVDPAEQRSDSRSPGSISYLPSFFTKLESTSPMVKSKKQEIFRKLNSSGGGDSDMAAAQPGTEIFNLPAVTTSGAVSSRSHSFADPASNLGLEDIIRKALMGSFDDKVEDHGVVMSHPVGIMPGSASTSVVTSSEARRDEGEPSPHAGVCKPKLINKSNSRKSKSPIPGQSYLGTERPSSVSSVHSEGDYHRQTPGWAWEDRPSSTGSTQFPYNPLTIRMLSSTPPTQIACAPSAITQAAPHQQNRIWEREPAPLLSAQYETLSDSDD
UniProt P45448: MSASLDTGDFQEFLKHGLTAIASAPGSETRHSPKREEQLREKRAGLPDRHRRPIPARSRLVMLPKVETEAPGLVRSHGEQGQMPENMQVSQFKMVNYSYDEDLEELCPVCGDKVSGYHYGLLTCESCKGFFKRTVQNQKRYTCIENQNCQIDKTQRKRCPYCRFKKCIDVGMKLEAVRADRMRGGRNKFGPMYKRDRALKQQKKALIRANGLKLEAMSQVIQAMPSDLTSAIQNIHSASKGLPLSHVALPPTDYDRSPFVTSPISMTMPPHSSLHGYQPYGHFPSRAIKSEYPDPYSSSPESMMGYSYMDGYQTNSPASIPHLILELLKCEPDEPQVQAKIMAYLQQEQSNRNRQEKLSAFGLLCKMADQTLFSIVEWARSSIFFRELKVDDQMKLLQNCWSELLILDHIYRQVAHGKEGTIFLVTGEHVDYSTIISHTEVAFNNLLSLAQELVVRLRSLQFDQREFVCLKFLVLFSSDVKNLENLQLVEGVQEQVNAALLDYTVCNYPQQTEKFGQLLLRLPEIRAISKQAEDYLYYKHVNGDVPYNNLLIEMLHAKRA

What was measured:
Experiment in all cases: affinity purification with mass spectrometry
[1] = target: Hdac3 (mouse (endogenous in G6C18 mESCs)) (UniProt O88895)
Esrrb-3GS-3xFLAG-C = target: T1, Esrrb-3GS-3xFLAG-C (UniProt Q61539)
T1 sequence: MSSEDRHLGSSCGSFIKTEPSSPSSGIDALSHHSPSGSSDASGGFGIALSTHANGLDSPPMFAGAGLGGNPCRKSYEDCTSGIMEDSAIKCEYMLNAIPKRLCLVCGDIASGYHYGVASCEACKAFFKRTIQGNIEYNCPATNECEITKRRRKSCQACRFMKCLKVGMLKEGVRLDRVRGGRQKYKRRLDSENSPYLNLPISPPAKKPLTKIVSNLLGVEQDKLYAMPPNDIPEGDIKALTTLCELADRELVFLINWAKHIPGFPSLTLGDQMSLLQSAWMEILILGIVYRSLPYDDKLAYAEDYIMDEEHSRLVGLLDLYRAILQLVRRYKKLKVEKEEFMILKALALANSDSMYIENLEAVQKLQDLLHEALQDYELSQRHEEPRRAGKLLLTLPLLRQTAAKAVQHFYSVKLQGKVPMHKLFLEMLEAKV

N-3xFLAG-3GS-Dax1 = target: T2, N-3xFLAG-3GS-Dax1 (UniProt Q61066)
T2 sequence: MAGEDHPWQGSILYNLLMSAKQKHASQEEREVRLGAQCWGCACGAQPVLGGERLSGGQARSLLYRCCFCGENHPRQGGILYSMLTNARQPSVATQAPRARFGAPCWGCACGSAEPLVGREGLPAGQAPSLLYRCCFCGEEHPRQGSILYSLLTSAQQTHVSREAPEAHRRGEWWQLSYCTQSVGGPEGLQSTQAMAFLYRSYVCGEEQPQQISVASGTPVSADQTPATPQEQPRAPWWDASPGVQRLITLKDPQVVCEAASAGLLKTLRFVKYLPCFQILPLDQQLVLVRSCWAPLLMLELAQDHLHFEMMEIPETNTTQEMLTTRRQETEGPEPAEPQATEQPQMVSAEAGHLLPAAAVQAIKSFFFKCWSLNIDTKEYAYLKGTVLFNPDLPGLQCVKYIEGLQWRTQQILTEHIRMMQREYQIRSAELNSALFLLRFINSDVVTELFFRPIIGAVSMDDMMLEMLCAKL

binding [1]: binds
Molecule: NCor1 (from UniProt Q60974 1-2453)

binding (Esrrb-3GS-3xFLAG-C): binds
binding (N-3xFLAG-3GS-Dax1): binds
Molecule: Nr5a2 (from UniProt P45448 1-560)

binding [1]: no binding
B1: Dax1 (protein, UniProt Q61066 1-472)
chain: T2 sequence
